{
  "source": "patent US6723838",
  "binders": {"B1": {"name": "SYNGAP of rat brain (endogenous) (protein)", "chain": "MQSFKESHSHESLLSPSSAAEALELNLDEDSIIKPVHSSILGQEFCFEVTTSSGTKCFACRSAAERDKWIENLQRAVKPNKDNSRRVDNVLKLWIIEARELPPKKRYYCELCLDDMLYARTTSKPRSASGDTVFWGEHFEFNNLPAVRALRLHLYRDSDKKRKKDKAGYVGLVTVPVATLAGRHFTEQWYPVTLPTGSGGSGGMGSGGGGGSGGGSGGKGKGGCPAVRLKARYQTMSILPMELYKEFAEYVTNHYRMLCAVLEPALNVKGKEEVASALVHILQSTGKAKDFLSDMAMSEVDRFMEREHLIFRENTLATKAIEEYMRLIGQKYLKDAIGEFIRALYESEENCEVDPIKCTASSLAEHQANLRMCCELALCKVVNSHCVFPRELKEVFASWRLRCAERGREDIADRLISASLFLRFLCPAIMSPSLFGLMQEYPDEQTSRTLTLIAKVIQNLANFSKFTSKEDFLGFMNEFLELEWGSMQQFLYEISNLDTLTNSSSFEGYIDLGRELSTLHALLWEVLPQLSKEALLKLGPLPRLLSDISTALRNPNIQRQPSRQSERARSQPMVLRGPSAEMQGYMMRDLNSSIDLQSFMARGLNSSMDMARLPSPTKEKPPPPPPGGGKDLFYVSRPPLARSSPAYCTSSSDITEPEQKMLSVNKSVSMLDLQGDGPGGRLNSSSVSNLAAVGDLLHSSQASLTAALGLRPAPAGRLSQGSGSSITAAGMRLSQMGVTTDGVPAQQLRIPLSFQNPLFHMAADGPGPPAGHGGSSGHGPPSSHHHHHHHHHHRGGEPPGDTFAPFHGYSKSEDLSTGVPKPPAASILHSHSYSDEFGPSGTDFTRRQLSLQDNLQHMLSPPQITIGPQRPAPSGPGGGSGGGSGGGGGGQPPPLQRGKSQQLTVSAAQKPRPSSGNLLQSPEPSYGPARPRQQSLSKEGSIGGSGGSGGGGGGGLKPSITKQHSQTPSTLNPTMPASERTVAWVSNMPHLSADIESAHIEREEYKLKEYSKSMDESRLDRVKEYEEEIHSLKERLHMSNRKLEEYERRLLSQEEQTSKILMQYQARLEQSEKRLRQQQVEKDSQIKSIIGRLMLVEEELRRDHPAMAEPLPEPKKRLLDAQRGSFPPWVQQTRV"}},
  "key": {"[1]": {"molecular_target": "T1, SAP102 of rat brain (endogenous) (rat) (UniProt Q62936)", "T1 sequence (looked up)": "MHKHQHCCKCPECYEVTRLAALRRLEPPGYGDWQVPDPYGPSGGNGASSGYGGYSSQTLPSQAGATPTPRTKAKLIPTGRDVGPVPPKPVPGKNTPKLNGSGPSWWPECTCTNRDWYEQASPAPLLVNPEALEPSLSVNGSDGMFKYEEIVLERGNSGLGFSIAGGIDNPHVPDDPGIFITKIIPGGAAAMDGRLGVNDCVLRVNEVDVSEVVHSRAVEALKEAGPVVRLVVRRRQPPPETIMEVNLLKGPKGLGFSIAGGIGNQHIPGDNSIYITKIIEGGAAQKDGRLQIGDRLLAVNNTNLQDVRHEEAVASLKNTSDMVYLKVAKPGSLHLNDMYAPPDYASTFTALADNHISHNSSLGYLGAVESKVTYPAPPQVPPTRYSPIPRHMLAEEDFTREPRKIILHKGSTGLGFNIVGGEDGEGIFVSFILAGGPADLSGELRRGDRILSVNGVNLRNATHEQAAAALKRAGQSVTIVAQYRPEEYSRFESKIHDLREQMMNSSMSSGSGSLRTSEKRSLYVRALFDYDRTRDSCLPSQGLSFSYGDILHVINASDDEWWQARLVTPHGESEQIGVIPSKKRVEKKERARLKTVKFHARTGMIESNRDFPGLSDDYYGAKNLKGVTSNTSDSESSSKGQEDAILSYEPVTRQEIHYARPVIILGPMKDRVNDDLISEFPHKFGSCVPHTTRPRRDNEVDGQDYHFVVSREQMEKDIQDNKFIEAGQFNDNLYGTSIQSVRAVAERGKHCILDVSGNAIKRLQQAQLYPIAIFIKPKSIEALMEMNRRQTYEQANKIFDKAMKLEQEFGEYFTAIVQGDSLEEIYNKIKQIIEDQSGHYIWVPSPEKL", "test": "coimmunoprecipitation from rat brain membranes (restated)"}, "[2]": {"molecular_target": "T1, SAP102 of rat brain (endogenous) (rat)", "test": "coimmunoprecipitation from rat brain membranes, immunoblot"}},
  "note": "These are yes or no findings as the source states them, for the method shown. In cells and extracts the contact can be indirect. Some results given as binding are weak or reduced against the parent protein; the word gives no strength.",
  "data": [
    {"binder": "B1", "values": [
      {"measurement": "binding", "setting": "[1]", "result": "binds"},
      {"measurement": "binding", "setting": "[2]", "result": "binds"}
    ]}
  ]
}
